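Growth of Mycobacterium tuberculosis over 3 days (7H9 medium with glucose and tyloxapol); the read-out is not stated. Tested at 50 µM. The record gives no direction; compounds that gave an IC50 in retests scored well above the rest, so higher reads as more growth inhibition. Size under these conditions: about 69,000 compounds, about 760 of them at 50% or above in at least one test.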

Values are the deposited “Percent Effect”, in %.
The record does not define 0% and 100%; most values in the screen are far below 50% and negative numbers occur (in some assays of this library far below -100).
This is an unselected part of the compounds tested.
Two or more numbers in one place are separate tests of the same structure; such repeats can differ widely.

| # | structure | effect |
|---|---|---|
| 1 | `CC(C)N(C)Cc1nnc2n1CCN(S(=O)(=O)C1CC1)CC2.O=C(O)C(F)(F)F` | -13.02 and -5.216 |
| 2 | `CCN(C)c1ncnc2c1CCN(C(=O)c1cnccn1)CC2.O=C(O)C(F)(F)F` | 0.3211 and -4.92 |
| 3 | `CCCOc1cccc(CNC(=O)CN2CCN(C)CC2C)c1` (configuration not stated) | 12.81 |
| 4 | `[H][C@@]12CC[C@H](Oc3ccccc3Cl)[C@]1([H])CN(C(=O)CNC(C)=O)C2` | -9.261 |
| 5 | `O=C1NCCN(C(=O)c2cn3ccsc3n2)C1c1cccc(F)c1` (configuration not stated) | 32.42 |
| 6 | `Cn1cccc1CN1CCC2(CCCN(C(=O)Cc3cccnc3)C2)C1` (configuration not stated) | -9.781 |
| 7 | `CC(C)N1C[C@H](NC(=O)c2coc(COc3cccc(F)c3)n2)[C@@H](O)C1` | -28.63 and 0.1083 |
| 8 | `Cc1cc(C)n2ncc(CN3C[C@@H](O)[C@H](Oc4ccccc4)C3)c2n1` | -15.09 |
| 9 | `Cn1ncc2c(=O)[nH]c(CN(Cc3ccco3)C3CC3)nc21` | -0.4438 |
| 10 | `Cc1nn(C)cc1CN(C)c1nccc(-c2cn(C)nc2C)n1` | -32.32 |
| 11 | `CCC1CCCCN1C(=O)CCn1cnc2sccc2c1=O` (configuration not stated) | 14.66 |
| 12 | `Cl.Cn1nc(C2CCCN(Cc3cc(F)cc(F)c3)C2)c2nccnc21` (configuration not stated) | 9.483 |
| 13 | `CC(C)Nc1nc(N2CCOCC2)nc2c1CN(Cc1ccoc1)CC2` | 33.5 |
| 14 | `O=C(CCc1ccc(Cl)s1)N1CCC(N2CCNC2=O)CC1` | 26.43 |
| 15 | `CC(=O)N1CCN(C(=O)NC(C)Cn2ccnc2)CC1` (configuration not stated) | -7.625 |
| 16 | `COCC1CC2(CCN(c3cccc(C)n3)CC2)CN1c1ncccn1.O=C(O)C(F)(F)F` (configuration not stated) | 25.69 |
| 17 | `CC(C)N(C)[C@@H]1CCN(S(C)(=O)=O)[C@H]1Cc1ccccc1` | 26.9 |
| 18 | `CCC(CC)(CCO)CNC(=O)c1ccon1` | 22.81 |
| 19 | `O=C(O)C(F)(F)F.O=C1CC[C@]2(CC[C@@H](NC(=O)NCc3cccnc3)CC2)N1` | -0.6808 |
| 20 | `Cn1cc(NC(=O)N2CCN(Cc3cscn3)CC2)ccc1=O` | 15.01 |
| 21 | `Cc1nc(N2CCOCC2)nc2c1CCN(C(=O)C1CC1)CC2` | -3.773 |
| 22 | `Cc1ccc(C(=O)N2Cc3c(CN4CCCCC4)nn(C)c3C2)cc1F.O=C(O)C(F)(F)F` | -15.19 |
| 23 | `Cc1ccn(CCC(=O)N2CCCC(Cc3cccnc3)C2)n1` (configuration not stated) | 6.28 |
| 24 | `Cn1cc(C2=NOC(C(=O)NC3(c4ccccc4)CCCC3)C2)cn1` (configuration not stated) | 9.617 |
| 25 | `CCSc1ncc(CN2CCN(c3ccc(C#N)cc3)C(=O)C2)cn1` | -2.951 and -0.7654 |
| 26 | `CN(Cc1cccc(C(N)=O)c1)c1ncc(C#N)cc1Cl` | 10.88 |
| 27 | `CCOC(=O)N[C@H]1C[C@@H](C(=O)NCc2cccc(Cl)c2)N(C)C1` | -11.49 |
| 28 | `Cc1nc(C)n(C2CCCN(C(=O)c3cccnc3NC(C)C)C2)n1` (configuration not stated) | 7.771 |
| 29 | `CN1CC[C@H](N(C)Cc2ccccc2)C[C@H](O)C1` | -1.947 |
| 30 | `Nc1ccnc(N2CCC(c3nccn3CC3CC3)CC2)n1` | -6.714 |
| 31 | `Cc1nc(COc2ccc(OC(C)C(N)=O)cc2)oc1C` (configuration not stated) | -9.245 |
| 32 | `CCn1ccnc1CN(C)C1CCCN(CCCc2ccccc2)C1` (configuration not stated) | -8.841 |
| 33 | `[H][C@@]12CC(=O)N(Cc3ccncc3)[C@@]1([H])CCN2Cc1cnn(C)c1` | 11.97 |
| 34 | `C=C(C)CN1CCCC(CNS(C)(=O)=O)C1` (configuration not stated) | 13.99 |
| 35 | `Cc1noc(CNC(=O)NCCc2ccc(Cl)cc2)n1` | -17.73 |
| 36 | `CCc1nnc2n1CC(CNCc1nnc(C(C)(C)C)o1)CC2` (configuration not stated) | 2.232 |
| 37 | `CCOc1ccc(C(=O)N(C)Cc2nccn2CC(F)(F)F)cc1` | 17.94 |
| 38 | `Cc1csc2ncc(-c3ccnc(NC4CCOCC4)n3)c(=O)n12` | 19.23 |
| 39 | `c1cn(-c2nccnc2C2CCCN(C3CCOCC3)C2)cn1` (configuration not stated) | 3.111 |
| 40 | `CN(Cc1nc(-c2ccccc2)c[nH]1)C(=O)NCC(=O)NC(C)(C)C` | 16.49 |
| 41 | `Cc1ccc(CNC(=O)c2ccc(=O)n(C)n2)c(OCC2CC2)c1` | 20.08 |
| 42 | `COC(=O)CNC(=O)c1cn(-c2ccccn2)c(=O)c2ccccc12` | 49.1 and 16.59 |
| 43 | `N#CCCn1cnc2c(Br)cccc2c1=O` | 2.215 |
| 44 | `O=C1CCC[C@]2(CN(S(=O)(=O)N3CCOCC3)C[C@H]2c2cccnc2)N1` | 0.5926 |
| 45 | `Cc1ccc(N2CCCC(NCCCS(C)(=O)=O)C2)nn1` (configuration not stated) | -31.59 |
| 46 | `Cc1nc(-c2cc(C(=O)NCCN3CCOCC3)c3ccccn23)cs1.O=C(O)C(F)(F)F` | -8.797 |
| 47 | `Cc1cc2c(cc1Cl)C=CC1(CCN(CC(=O)N3CCOCC3)CC1)O2` | -26.89 |
| 48 | `CN(C(=O)c1ccc(NC(=O)c2cc[nH]n2)cc1)C1CCCCC1` | 1.858 and -29.31 |
| 49 | `Cc1cc(C[C@@H]2CCC[C@H]2NCc2cc(F)ccc2F)on1.O=C(O)CC(O)(CC(=O)O)C(=O)O` | -6.284 |
| 50 | `O=C(CN1CCOC(CNc2cccnn2)C1)NCc1cccs1` (configuration not stated) | 6.835 |
| 51 | `Cc1nc(CNC2CCCN(c3cccnn3)C2)no1` (configuration not stated) | -1.905 and -0.1057 |
| 52 | `Cc1c[nH]nc1C1CCN(C(=O)CC2CCCC2)C1` (configuration not stated) | 13.46 |
| 53 | `CCc1ccc(C(=O)O)cc1S(=O)(=O)Nc1ccc(F)c(C#N)c1` | 18.87 |
| 54 | `CCc1noc(CN2CCN(Cc3cccs3)CC2)n1` | 6.395 |
| 55 | `CCCc1noc(CN2CCCC2c2noc(C3CC3)n2)n1` (configuration not stated) | -25.21 |
| 56 | `Cc1cc(-n2cncn2)n2ncnc2n1` | 1.903 |
| 57 | `[H][C@@]12COCC[C@]1([H])C[C@H](N(CC(=O)NC)S(=O)(=O)c1ccccc1)C2` | -8.043 |
| 58 | `CCc1nnc2n1CCN(C(=O)c1cnc3ccccc3n1)C2` | -4.072 and -4.656 |
| 59 | `C[C@@H]1CN(C(=O)C2CCS(=O)(=O)CC2)CC[C@@]1(O)C1CCOCC1` | 28.56 and 0.6244 |
| 60 | `Cc1ccc2c(n1)N(CCn1cccn1)CCN(CC1CC1)C2.O=C(O)C(F)(F)F.O=C(O)C(F)(F)F` | 1.196 |
| 61 | `CC1CCN(C(=O)CCN2Cc3ccccc3C[C@H]2C(N)=O)C1` (some centres not stated) | -3.714 and 6.54 |
| 62 | `Cl.NCCNS(=O)(=O)Cc1ccc(Br)cc1` | -8.434 |
| 63 | `CCN(CC(=O)Nc1c(C)n[nH]c1C)CC(O)c1ccc(C)cc1` (configuration not stated) | -20.01 |
| 64 | `CC(=O)N1CCn2c(C(=O)N(C)C)cnc2C1` | 10.42 |
| 65 | `CC(C)COc1cncc(NCc2nnc3ccccn23)n1` | 5.423 |
| 66 | `CCO[C@@H]1CO[C@@]2(CCCN(S(=O)(=O)c3cccnc3)C2)C1.O=C(O)C(F)(F)F` | -4.591 |
| 67 | `Cc1[nH]c2c(C)ccc(C)c2c1CC(=O)NC1CCCNC1=O` (configuration not stated) | -0.8127 |
| 68 | `CC(C)N1CCC(Cc2cnc(-c3cccc(C(=O)O)c3)cn2)C1` (configuration not stated) | 10.65 |
| 69 | `CC(C)c1nc(C2CCCN(C(=O)CCCn3ccnc3)C2)no1` (configuration not stated) | 15.06 and 1.586 |
| 70 | `CN1CCN(Cc2cscn2)CC(C(=O)N(C)C)C1` (configuration not stated) | -0.8103 |
| 71 | `CC(=O)c1cccc(NC(=O)c2cnc(N3CCN(C)CC3)nc2C)c1` | -8.254 |
| 72 | `Clc1snnc1CN1CCN(c2nccs2)CC1` | -15.26 |
| 73 | `C[C@H](c1ccc(Cl)cc1)n1c(C2CC2)n[nH]c1=O` | 23.54 |
| 74 | `CN(C)C(CNC(=O)N(Cc1ccco1)C1CC1)c1cccs1` (configuration not stated) | -2.378 |
| 75 | `CC(=O)N(C)c1nc(CN2CCN(c3nccs3)CC2)cs1` | -0.2629 |
| 76 | `CCN(CCCNC(=O)c1ccc(C)[nH]c1=O)S(C)(=O)=O` | -12.39 |
| 77 | `Cn1cc(-c2nnn3c2COC(CNCc2nccs2)C3)cn1` (configuration not stated) | 3.101 |
| 78 | `Cc1cccn2cc(CNS(=O)(=O)N3CCOCC3)nc12` | -20.71 |
| 79 | `Cn1cc(C2CCCN2C(=O)c2cnc(-c3ccccn3)s2)cn1` (configuration not stated) | 15.49 |
| 80 | `CC(C)(C)C(=O)NCCC(=O)NC(C)(C)c1ccc2c(c1)OCCO2` | -10.09 and 15.39 |
| 81 | `O=C(O)C(F)(F)F.O=C(O)C(F)(F)F.c1cc(CNCC2OCCc3cn(CC4CC4)nc32)cs1` (configuration not stated) | -3.945 and 3.159 |
| 82 | `CC(C)(C)OC(=O)N1CCN(C(=O)CCn2cccn2)CC1` | -13.78 |
| 83 | `Cn1cnnc1CN1CCC2(CCC(=O)N(Cc3ccccn3)C2)CC1` | 29.68 |
| 84 | `CCC[C@H]1CN(Cc2ccccc2C#N)C[C@@H]1NS(C)(=O)=O` | 2.867 |

For reference, 7 entries once more:

Result for CCOC(=O)N[C@H]1C[C@@H](C(=O)NCc2cccc(Cl)c2)N(C)C1 was -11.49%.
Result for Cn1cc(C2CCCN2C(=O)c2cnc(-c3ccccn3)s2)cn1 (configuration not stated) was 15.49%.
Result for COC(=O)CNC(=O)c1cn(-c2ccccn2)c(=O)c2ccccc12 was 49.1% and 16.59%.
Result for Cc1nc(CNC2CCCN(c3cccnn3)C2)no1 (configuration not stated) was -1.905% and -0.1057%.
Result for O=C1NCCN(C(=O)c2cn3ccsc3n2)C1c1cccc(F)c1 (configuration not stated) was 32.42%.
Result for [H][C@@]12CC[C@H](Oc3ccccc3Cl)[C@]1([H])CN(C(=O)CNC(C)=O)C2 was -9.261%.
Result for CN(C)C(CNC(=O)N(Cc1ccco1)C1CC1)c1cccs1 (configuration not stated) was -2.378%.

Data taken from ChEMBL document CHEMBL3988442, “University of Dundee, Small-Polar-MMV Screening Library” (2021).